Results taken from PubChem BioAssay AID485314 (National Center for Advancing Translational Sciences (NCATS), 2010).
Hit rate of the full screen: of about 340,000 compounds, about 4,500 (1.3%) were called active. The shares of active, inactive and inconclusive entries below differ from those in the screen. The call rests on the fitted dose curve; in most records, active means well fitted inhibition curve with a large enough effect; inconclusive means small, poorly fitted or top-dose-only effect, or another doubt; inactive means no such curve, though single readings can be large or run the other way. Where the call is inconclusive, the potency comes from a doubtful curve fit.

Target: DNA polymerase beta (Homo sapiens) (UniProt P06746)
Experiment: qHTS Assay for Inhibitors of DNA Polymerase Beta
Details: Pol beta primer extension/strand displacement, fluorescence kinetic; activity change, negative = inhibition: at 114 µM (top of the series)
Summary of the method: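 Curves were derived by four-parameter Hill fits of normalized qHTS data. The kinetic fluorescent primer-extension read was taken at 0 and 10 min after 50 nM substrate, following a 15 min room-temperature preincubation of 10 nM enzyme with compounds.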
On the % scale 0 is the no-effect control and ±100 the full control effect; potency means the concentration at half of the fitted maximal effect.

Row | Structure (SMILES) | Potency | activity change, negative = inhibition
1 | c1ccc2c(c1)CC(N1CCN(c3cccc4c3OCCO4)CC1)C2 | inactive | 
2 | Cc1oc2ccc(O)c(CN3CCN(Cc4ccccc4)CC3)c2c1C(=O)Nc1cccc(Cl)c1C | inactive | 
3 | COC(=O)Cc1ccc(NC(=S)N2CCN(c3ccc(F)cc3)CC2)cc1 | inactive | 
4 | COC(=O)C1CCN(C(=O)CSc2nc3ccc(OC)cc3[nH]2)CC1 | inconclusive: 0.141 µM [inhibitor, full curve, poor fit] | 
5 | Cc1cccc(N2CCC(N3CCN(C4CCCCC4)C(CCO)C3)CC2)c1C (stereo not given) | active: 39.8 µM | 
6 | Cc1ccc(NC(=O)NNC(=O)c2cc3ccccc3cc2O)cc1 | inconclusive: 79.4 µM [inhibitor, single point] | 
7 | CN(C)Cc1cnc2ccc(Cl)cn12 | inconclusive: 2.82 µM [inhibitor, full curve] | 
8 | COc1cc(C(=O)NC(=S)Nc2ccc(Cl)c(C(=O)O)c2)cc(OC)c1OC | inactive | 
9 | CCCc1ncc(CN2CCC(C(=O)Nc3cccc(-c4cscn4)c3)CC2)cn1 | inactive | 
10 | Cc1cc(N2C(=O)c3ccc(C(=O)Nc4ccccc4O)cc3C2=O)no1 | inconclusive: 63.1 µM [inhibitor, single point] | 
11 | Cc1c(Cl)cccc1NC(=O)CN1C(=O)CSc2ccc(S(=O)(=O)N3CCCC3)cc21 | inactive | 
12 | O=C(Cn1cnc2c(nnn2-c2cccc(Cl)c2)c1=O)N1CCCC1 | inconclusive: 0.126 µM [inhibitor, full curve, poor fit] | 
13 | Cc1ccc(N(C(=O)c2csnn2)C(C(=O)NC2CCCCC2)c2cccnc2)cc1 (stereo not given) | inactive | 
14 | O=C(c1ccc(Nc2cccc(C(F)(F)F)c2)nc1)N1CCCC1 | inconclusive: 3.98 µM [inhibitor, single point] | 
15 | CN(C)CCCNc1ccc(-c2cc(Nc3cccc(Cl)c3)ncn2)cn1 | inconclusive: 50.1 µM [inhibitor, partial curve] | 
16 | O=C(N/N=C/c1cccs1)c1cc(-c2cccc3ccccc23)n[nH]1 | inconclusive: 63.1 µM [inhibitor, single point] | 
17 | CC1=Nc2ccccc2/C1=C\c1nc(-c2ccccc2)oc1O | inactive | 
18 | Cc1ccccc1C(=O)O/N=C(\N)c1ccc([N+](=O)[O-])cc1 | inactive | 
19 | O=C(NC(=S)Nc1ccc(F)c([N+](=O)[O-])c1)c1ccccc1F | inconclusive: 79.4 µM [inhibitor, partial curve] | 
20 | Cc1ccc(C(=O)N/N=C/c2ccoc2)cc1C | active: 25.1 µM | 
21 | O=C(NC(Nc1nc2ccccc2s1)(C(F)(F)F)C(F)(F)F)c1ccccc1 | inconclusive: 89.1 µM [inhibitor, single point] | 
22 | CC(=O)NCCC(=O)Nc1nc2c(ccc3ccccc32)s1 | inconclusive: 25.1 µM [inhibitor, single point] | 
23 | Cc1c(N)c(C(C)(C)C)cc(C(C)(C)C)c1[N+](=O)[O-] | inactive | 
24 | Cc1ccc(-c2cc(C(=O)Nc3ccc(S(=O)(=O)Nc4cc(C)on4)cc3)c3ccccc3n2)c(C)c1 | inconclusive: 10 µM [inhibitor, full curve, poor fit] | 

Row | Structure (SMILES) | Potency | activity change, negative = inhibition
25 | CC(C)c1nn2c(=O)cc(COC(=O)c3ccc(NC(=O)c4ccccc4Cl)cc3)nc2s1 | inconclusive: 35.5 µM [inhibitor, partial curve] | 
26 | C/C=C/C=C/C(=O)N1CC2(CC(c3cccc(NC(=O)CCCCC)c3)=NO2)C[C@H]1C(N)=O (stereo not given in full) | inactive | 
27 | O=C(CCCN1C(=O)/C(=C\c2cccc(Br)c2)SC1=S)Nc1cccnc1 | inconclusive: 89.1 µM [inhibitor, single point] | 
28 | CC(CNC(=O)c1ccc(Cn2c(SCc3ccccc3)nc3cccnc32)cc1)c1ccccc1 (stereo not given) | inconclusive: 79.4 µM [inhibitor, single point] | 
29 | N#Cc1ccccc1/C=N/Nc1nc(-c2ccccc2)c2cc(Cl)ccc2n1 | inconclusive: 3.55 µM [inhibitor, partial curve, poor fit] | 
30 | c1coc(CNCc2cccs2)c1 | inconclusive: 39.8 µM [inhibitor, single point] | 
31 | COc1cccc(N2CCN(C(=O)Cn3cnc4onc(-c5ccc(F)cc5)c4c3=O)CC2)c1 | inactive | 
32 | CC(C)(C)c1cc[n+](C2=C([O-])c3ccccc3C(=O)/C2=N\S(=O)(=O)c2ccccc2)cc1 | inconclusive: 50.1 µM [inhibitor, single point] | 
33 | O=C(NCc1ccccc1Cl)c1cnc2ccccc2n1 | inactive | 
34 | Cn1cc(S(=O)(=O)N2CCCC2)cc1C(=O)Nc1ccc(C(F)(F)F)cc1 | active: 25.1 µM | 
35 | COc1ccc(C(=O)Nc2nc3ccc(S(=O)(=O)N4CCCC4)cc3s2)cc1 | inconclusive: 31.6 µM [inhibitor, full curve] | 
36 | CCC(C)[C@H](NC(=O)N1CCCC1)C(=O)O (stereo not given in full) | inconclusive: 100 µM [inhibitor, single point] | 
37 | Cc1ccc(S(=O)(=O)c2cc3c(=O)n4ccccc4nc3n(Cc3ccco3)c2=N)cc1C | active: 8.91 µM | 
38 | COc1ccc(NC(=S)N2c3ccccc3CC2C)cc1OC (stereo not given) | inconclusive: 89.1 µM [inhibitor, single point] | 
39 | CCOC(=O)c1c(N2C(=O)Nc3cc(Cl)c(Cl)cc3N2O)sc2c1CCCCC2 | active: 50.1 µM | 
40 | O=C(Nc1cccc(C(=O)Nc2cccc(C(F)(F)F)c2)c1)c1ccc(=O)[nH]c1 | inconclusive: 28.2 µM [inhibitor, single point] | 
41 | CCCn1c(NC(=O)c2ccc(Cl)c(S(=O)(=O)N3CCCC3)c2)nc2ccccc21 | inconclusive: 89.1 µM [inhibitor, partial curve, poor fit] | 
42 | CC(=O)Nc1ccc(S(=O)(=O)N2CCN(c3ccccc3)CC2)cc1 | inactive | 
43 | CN1CCN(c2cnn(-c3ccccc3)c(=O)c2Br)CC1 | inconclusive: 0.501 µM [inhibitor, full curve, poor fit] | 
44 | Cc1nc2ccc(S(=O)(=O)N(CC(=O)Nc3ccc(Cl)cc3)Cc3ccccc3)cc2s1 | inactive | 
45 | COc1cc(Cl)c(C)cc1Nc1c2c(nc3ccccc13)CCC2 | inactive | 
46 | COc1cc(-n2c(=O)c3ccccc3n(Cc3cc(=O)n4ccccc4n3)c2=O)cc(OC)c1OC | inconclusive: 89.1 µM [inhibitor, single point] | 
47 | CCOC(=O)c1cccc(NS(=O)(=O)c2c(C)nc3sc(C)cn3c2=O)c1 | inactive | 
48 | O=C(CCSCCC(=O)NCc1ccco1)NCc1ccco1 | active: 22.4 µM | 

Row | Structure (SMILES) | Potency | activity change, negative = inhibition
49 | CCCCn1c(=N)n(CC(=O)c2ccc([N+](=O)[O-])cc2)c2ccccc21 | inconclusive: 1 µM [inhibitor, partial curve, poor fit] | 
50 | COc1ccc(S(=O)(=O)N(CCc2ccccc2)CC(=O)Nc2cc(C)ccc2C)cc1 | inactive | 
51 | Cc1cccc(Nc2ccc(C(=O)O)cc2[N+](=O)[O-])c1C | inconclusive: 89.1 µM [inhibitor, single point] | 
52 | Cc1cccc2sc(N(Cc3cccnc3)C(=O)Cc3ccccc3)nc12 | inconclusive: 89.1 µM [inhibitor, single point] | 
53 | Cc1ccc(NC(=O)CSc2nc(-c3cccs3)cc(C(F)(F)F)n2)cc1C | inconclusive: 39.8 µM [inhibitor, single point] | 
54 | Cc1cccc(OCC(=O)NNc2c3ccccc3nc3ccccc23)c1 | inconclusive: 20 µM [inhibitor, full curve] | 
55 | COc1cc(-c2noc(-c3ccc(NC4CCCCC4)c([N+](=O)[O-])c3)n2)cc(OC)c1OC | inconclusive: 50.1 µM [inhibitor, partial curve] | 
56 | COc1ccc2c(CNCc3cccs3)c(C(=O)O)n(Cc3ccc(F)cc3Cl)c2c1 | inconclusive: 5.01 µM [inhibitor, full curve, poor fit] | 
57 | Cc1cc(C)n(/N=C/c2cc([N+](=O)[O-])ccc2O)c(=O)c1 | inconclusive: 89.1 µM [inhibitor, single point] | 
58 | CCCCCCc1cc2cc(C(N)=O)c(=N)oc2cc1O | active: 31.6 µM | 
59 | Cc1ccc(NC(=O)C(Cc2ccccc2)n2cccc2)c(C)c1 (stereo not given) | inactive | 
60 | O=C(Nc1ccc2nn(-c3ccccc3)nc2c1)c1ccc2c(c1)OCO2 | active: 39.8 µM | 
61 | CCCCNC(=O)c1sc(=S)n2c1[nH]c(=O)c1ccc(C(=O)NCCc3ccc(OC)c(OC)c3)cc12 | inconclusive: 89.1 µM [inhibitor, single point] | 
62 | NC1=NC(=O)C(Cc2cc(Cl)ccc2Cl)S1 (stereo not given) | inconclusive: 39.8 µM [inhibitor, single point] | 
63 | c1ccc2c(c1)ncn2Cc1nnc2sc(-c3ccc4c(c3)OCO4)nn12 | inconclusive: 56.2 µM [inhibitor, partial curve] | 
64 | COc1ccccc1NC(=O)CSc1nc2sc(C)c(C)c2c(=O)n1C | inactive | 
65 | COc1cccc(CNC(=O)C2CCN(S(=O)(=O)c3ccc(-n4cnnn4)cc3)CC2)c1 | inactive | 
66 | CCCN(C(=O)Cc1c(C(=O)O)[nH]c2ccc(Cl)cc12)c1ccc(OCC)cc1 | active: 50.1 µM | 
67 | CS(=O)(=O)N1CCN(c2ccc(NC(=O)c3ccc([N+](=O)[O-])o3)cc2)CC1 | inconclusive: 79.4 µM [inhibitor, single point] | 
68 | CC(C)n1c(COc2ccccc2)nc2ccccc21 | inconclusive: 7.94 µM [inhibitor, full curve, poor fit] | 
69 | COc1cccc([C@@H]2Nc3ccc(C(=O)O)cc3[C@@H]3C=CC[C@@H]32)c1OC | inactive | 
70 | Cc1ccc2c(=O)cc(C(=O)Nc3ccc(S(=O)(=O)Nc4onc(C)c4C)cc3)oc2c1 |  | inconclusive: -33% [inhibitor]

Three entries out of the list, arranged by molecular weight, smallest number first:
Row | Structure (SMILES) | Potency | activity change, negative = inhibition
68 | CC(C)n1c(COc2ccccc2)nc2ccccc21 | inconclusive: 7.94 µM [inhibitor, full curve, poor fit] | 
60 | O=C(Nc1ccc2nn(-c3ccccc3)nc2c1)c1ccc2c(c1)OCO2 | active: 39.8 µM | 
61 | CCCCNC(=O)c1sc(=S)n2c1[nH]c(=O)c1ccc(C(=O)NCCc3ccc(OC)c(OC)c3)cc12 | inconclusive: 89.1 µM [inhibitor, single point] | 
